Source: US5010174A (Mitsubishi Petrochemical Co., Ltd., priority 1987, dated 1991)

Assay: general procedure: Boc solid-phase peptide synthesis; BHA resin (Peptide Kenkyusho, divinylbenzene 2%, 100 to 200 mesh, 0.61 meq/g); HOBt (with Boc-Asn)
Conditions: whole synthesis

Substance	crude mass (scale 200 mg resin peptide) [mg]	other results
(Oct^1, Cys(Acm)^7)-CCT	31.0	–
(Oct^1, Ala^3, Cys(CA)^7)-CCT	–	isolated mass (scale 50 mg protected peptide resin): 0.9 mg
(Oct^1, Thr^3, Cys(Acm)^7)-CCT	–	crude mass (scale 50.7 mg resin peptide): 19.2 mg
(Oct^1, Cys(CA)^7)-CCT	26.8	–
